Some of the results follow. These are raw signals, not scaled to a control.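 Primary screen: polymyxin B was added at a level permeabilizing Salmonella outer membranes while sparing inner membranes. DMSO wells, both with and without polymyxin B, established maximum growth. Plate-to-plate variation meant each plate was ranked on its own, and the lowest-OD600 compounds were selected as hits.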
System: Salmonella enterica serovar Typhimurium SL1344
Experiment: bacterial growth OD600 after 18 h with compound and polymyxin B; higher = more bacterial growth (less inhibition)
Details: 50 µM, Mueller-Hinton broth

Row | SMILES | bacterial growth OD600 (polymyxin B 0.75 µg/mL) | bacterial growth OD600 (polymyxin B 1 µg/mL)
1 | CSc1ccc(CC2(CCC(=O)NCCC(c3ccc(F)cc3)c3ccco3)CCC(=O)N2)cc1 (stereo not drawn) | 0.309 | –
2 | CCN(CC1CCN(CCc2ccccc2C)CC1)C(=O)c1cc(C)nc(C)n1 | – | 1.27
3 | CC(C)CCN1CC[C@@H](N2CCN(CCc3ccccc3)CC2)[C@H](O)C1 | 0.896 | –
4 | COc1ccc(F)c(CN2CCCC3(CCN(C(=O)C(C)C)C3)C2=O)c1 (stereo not drawn) | – | 0.877
5 | Cc1nc(N2CCC(C(=O)NC(C)Cc3ccsc3)CC2)nc2cc(S(C)(=O)=O)ccc12 (stereo not drawn) | 0.827 | –
6 | O=C(C1CCCN(C2CCN(C3Cc4ccccc4C3)CC2)C1)N1CCCC1 (stereo not drawn) | – | 0.905
7 | Cc1ccccc1CCC1CCCN(C(=O)CCn2cncn2)C1 (stereo not drawn) | 0.847 | –
8 | O=C(CCC1CCN(C(=O)CCc2cnccn2)CC1)Nc1ccc(F)c(Cl)c1 | – | 0.909
